From patent US5652100A, “Stably transfected rodent fibroblast cell lines expressing human GABA-A -receptors” (priority 1992, dated 1997) come the findings set out here.

This assay deals with T1, recombinant GABAA receptor (α1 β1 γ2L) expressed by population A cells (Bos taurus, UniProt P08219+P08220+P22300).
T1 construct: expressed in transfected cells; clone 'population A'
T1 sequence (P08219 28-456): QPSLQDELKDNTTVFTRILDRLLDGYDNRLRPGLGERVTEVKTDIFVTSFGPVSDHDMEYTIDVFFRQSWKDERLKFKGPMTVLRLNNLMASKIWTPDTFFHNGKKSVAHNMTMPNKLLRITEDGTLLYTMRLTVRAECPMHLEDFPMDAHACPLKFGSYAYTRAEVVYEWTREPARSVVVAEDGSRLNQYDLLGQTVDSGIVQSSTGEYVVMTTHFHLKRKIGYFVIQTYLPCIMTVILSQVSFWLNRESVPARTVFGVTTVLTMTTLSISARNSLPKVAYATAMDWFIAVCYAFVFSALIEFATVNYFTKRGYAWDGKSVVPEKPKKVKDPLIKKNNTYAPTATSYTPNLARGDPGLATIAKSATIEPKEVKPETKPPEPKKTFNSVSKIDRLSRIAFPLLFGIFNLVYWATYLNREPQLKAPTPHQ
T1 sequence (P08220 26-474): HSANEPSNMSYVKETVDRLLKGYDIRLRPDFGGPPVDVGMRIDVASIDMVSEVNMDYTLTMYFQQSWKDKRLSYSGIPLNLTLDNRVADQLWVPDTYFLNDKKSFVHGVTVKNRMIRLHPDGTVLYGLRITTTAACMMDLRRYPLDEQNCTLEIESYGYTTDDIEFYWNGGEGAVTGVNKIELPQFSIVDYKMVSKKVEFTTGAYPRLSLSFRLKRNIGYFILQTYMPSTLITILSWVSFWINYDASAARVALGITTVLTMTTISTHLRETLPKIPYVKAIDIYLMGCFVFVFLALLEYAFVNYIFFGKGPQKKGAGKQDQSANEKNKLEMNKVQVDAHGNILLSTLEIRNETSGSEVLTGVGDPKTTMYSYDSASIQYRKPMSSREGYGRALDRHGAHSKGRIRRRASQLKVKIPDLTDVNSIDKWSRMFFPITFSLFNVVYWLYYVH
T1 sequence (P22300 40-475): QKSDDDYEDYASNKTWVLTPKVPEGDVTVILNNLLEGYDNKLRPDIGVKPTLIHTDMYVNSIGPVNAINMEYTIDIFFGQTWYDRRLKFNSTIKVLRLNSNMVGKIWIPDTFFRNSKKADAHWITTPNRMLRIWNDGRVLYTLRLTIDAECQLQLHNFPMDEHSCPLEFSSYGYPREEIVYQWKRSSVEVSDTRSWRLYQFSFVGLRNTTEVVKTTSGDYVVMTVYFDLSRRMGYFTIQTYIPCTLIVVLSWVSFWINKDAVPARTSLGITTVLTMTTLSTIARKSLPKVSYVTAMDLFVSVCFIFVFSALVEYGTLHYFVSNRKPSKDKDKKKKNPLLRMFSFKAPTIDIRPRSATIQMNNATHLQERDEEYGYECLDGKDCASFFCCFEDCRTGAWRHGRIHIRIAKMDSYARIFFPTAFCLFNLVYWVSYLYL
Briefly: cell-based. More on the design: species or system bovine. As to conditions: dexamethasone-induced cells, whole cell patch clamp; read-out: log EC50 of GABA concentration response curves (converted).

For `NCCCC(=O)O` [GABA, Gamma-amino butyric acid], the EC50 is 6.31 µM.
